# According to PubChem BioAssay AID652054 (National Center for Advancing Translational Sciences (NCATS), 2013):
# The chains behind the UniProt entries cited, without tags or fusion partners.
# UniProt P35462, whole entry, looked up: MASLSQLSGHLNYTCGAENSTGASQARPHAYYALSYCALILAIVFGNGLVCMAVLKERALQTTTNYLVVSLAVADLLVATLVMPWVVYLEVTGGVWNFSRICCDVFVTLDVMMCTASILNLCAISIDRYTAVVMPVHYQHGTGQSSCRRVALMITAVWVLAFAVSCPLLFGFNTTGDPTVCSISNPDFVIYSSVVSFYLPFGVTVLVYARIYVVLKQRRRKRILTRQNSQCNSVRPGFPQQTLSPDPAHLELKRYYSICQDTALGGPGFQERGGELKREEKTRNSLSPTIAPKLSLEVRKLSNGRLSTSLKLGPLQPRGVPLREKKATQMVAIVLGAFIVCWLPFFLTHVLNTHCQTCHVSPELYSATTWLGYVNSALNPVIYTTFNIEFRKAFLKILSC
# Among all 360,000 compounds or so, about 9,100 (2.5%) were called active. The inconclusive results got no clear call from the source; some entries with a clear call stand among them for comparison. Cut-off read from the data, not from the text of the source: active = max response below about -50%; inconclusive = no clear call, values can overlap the other calls; inactive = above that.
# Biological target: D(3) dopamine receptor (Homo sapiens) (UniProt P35462)
# Assay: qHTS of D3 Dopamine Receptor Antagonist: qHTS
# Conditions: D3R cells, DiscoveRx beta-arrestin luminescence, antagonist mode; stronger effect = lower value
# Summary of the method: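 Cells expressing the human receptor were seeded at 1500 cells/well, incubated overnight at 37 degrees C in 5% CO2, then exposed to library compounds with dopamine controls for 90 minutes at 37 degrees C before luminescent detection.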
# % is set by controls: 0 for no effect and ±100 for the full control effect.
row,Compound,"max response, negative = inhibition"
1,COc1cc(F)ccc1-c1cc(C(=O)NCc2ccc(F)cc2)[nH]n1,inconclusive: -45.8%
2,CN=Cc1c(NC)nc2c(C)cccn2c1=O,inconclusive: -30.8%
3,COc1ccccc1CNC(=O)C1CCN(Cc2nc(-c3cccc(Cl)c3)oc2C)CC1,inconclusive: -38.4%
4,CCOC(=O)C(=Cc1c[nH]c2ccc(S(=O)(=O)N(C)C)cc12)C(=O)OCC,inactive: -14.8%
5,Cc1cccc(C(=O)OCC(=O)NC2CCCCCCC2)c1,inconclusive: -40.3%
6,CS(=O)(=O)N(CC(=O)N1CCN(Cc2ccc3c(c2)OCO3)CC1)c1ccc2c(c1)OCO2,inconclusive: -48.8%
7,COc1ccc(C(=O)N2CCN(c3ccccc3OC)CC2)cc1,inactive: 4.68%
8,Cc1ccc(OCCCCCN2CCOCC2)c(Cl)c1,inconclusive: -38.9%
9,O=C(OCCOc1cccc(Cl)c1)c1ccc2ncsc2c1,inactive: -1.3%
10,CN(C)CC(=O)Nc1cc(C(F)(F)F)ccc1Cl,active: -58.2%
11,O=C1c2ccccc2-c2nnc(-c3ccc(O)cc3)cc21,inconclusive: -38.6%
12,O=C(Cn1cccc1C(=O)c1ccccc1)NCCN1CCCCCC1,inconclusive: -39%
13,Cc1cc(O)c(-c2cc(O)c(C)cc2O)cc1O,inconclusive: -41.2%
14,COc1ccc(-c2cc3ccccc3n2CC(O)CN2CCOCC2)cc1 (stereo unspecified),inconclusive: -39.8%
15,CCNc1ccc(Br)cc(C(=O)/C=C/c2c(Cl)cccc2Cl)c1=O,active: -66.1%
16,COc1ccc(C(C)(C)C)cc1NC(=O)CCCn1c(=O)oc2ccccc21,inactive: -8.71%
17,CCOC(=O)CNC(=S)N(CCCN1CCCCC1)Cc1cccs1,inconclusive: -33.8%
18,COc1ccccc1CCNC(=O)C1CCC(=O)N(Cc2ccccc2OC)C1 (stereo unspecified),inactive: -22.6%
19,O=C(Cn1cc(SCc2ccc(F)cc2)c2ccccc21)N1CCOCC1,inconclusive: -33.3%
20,Cc1ccc2nc(-c3ccc(Cl)cc3)c(Cc3ccccn3)n2c1,inconclusive: -35.9%
21,COc1ccc(-c2nc(-c3ccccc3)nc(N3CCN(C)CC3)c2C#N)cc1,active: -85.3%
22,Cc1ccc(CNC(=O)CN2CCCC(C)C2)cc1 (stereo unspecified),active: -71.5%
23,COc1cccc(-c2ccnc3[nH]n(-c4ccccc4)c(=O)c23)c1,inconclusive: -30.4%
24,CCOc1ccc(NC(=O)CN2CCN(CC(=O)Nc3cccc(F)c3)CC2)cc1,inconclusive: -30.2%
25,CC(C)(C)OC(=O)N1CCC[C@H]1c1nnc(SCc2c(Cl)cccc2Cl)o1,inconclusive: -39.3%
26,O=C(NC(=S)Nc1nc2c(ccc3ccccc32)s1)c1cccs1,inactive: 7.37%

# Taken from above:
# In max response, negative = inhibition, CN=Cc1c(NC)nc2c(C)cccn2c1=O shows inconclusive: -30.8%
# In max response, negative = inhibition, COc1cccc(-c2ccnc3[nH]n(-c4ccccc4)c(=O)c23)c1 shows inconclusive: -30.4%
